Test results: PMC7548010
Results are given in words; binding and its absence hold for the method and conditions named. Binding seen in cells or lysates may run through a third protein. Binding calls can cover weak binding; strength is not graded here. Sequences can lack the tags named with a protein.

Target: Flag-TRAF (N-terminal TRAF domain of USP7)
Experiment: co-IP; Flag-USP7 or Flag-tagged truncated mutants (TRAF, CD, HUBL) transfected into SK-Hep1 cells; immunoprecipitation with flag antibody, immunoblotting for the endogenous partner

B1: SREBP1C (form not told, co-precipitated with Flag-tagged USP7 domains) (protein, UniProt P36956-3 1-1047)
chain: MDCTFEDMLQLINNQDSDFPGLFDPPYAGSGAGGTDPASPDTSSPGSLSPPPATLSSSLEAFLSGPQAAPSPLSPPQPAPTPLKMYPSMPAFSPGPGIKEESVPLSILQTPTPQPLPGALLPQSFPAPAPPQFSSTPVLGYPSPPGGFSTGSPPGNTQQPLPGLPLASPPGVPPVSLHTQVQSVVPQQLLTVTAAPTAAPVTTTVTSQIQQVPVLLQPHFIKADSLLLTAMKTDGATVKAAGLSPLVSGTTVQTGPLPTLVSGGTILATVPLVVDAEKLPINRLAAGSKAPASAQSRGEKRTAHNAIEKRYRSSINDKIIELKDLVVGTEAKLNKSAVLRKAIDYIRFLQHSNQKLKQENLSLRTAVHKSKSLKDLVSACGSGGNTDVLMEGVKTEVEDTLTPPPSDAGSPFQSSPLSLGSRGSGSGGSGSDSEPDSPVFEDSKAKPEQRPSLHSRGMLDRSRLALCTLVFLCLSCNPLASLLGARGLPSPSDTTSVYHSPGRNVLGTESRDGPGWAQWLLPPVVWLLNGLLVLVSLVLLFVYGEPVTRPHSGPAVYFWRHRKQADLDLARGDFAQAAQQLWLALRALGRPLPTSHLDLACSLLWNLIRHLLQRLWVGRWLAGRAGGLQQDCALRVDASASARDAALVYHKLHQLHTMGKHTGGHLTATNLALSALNLAECAGDAVSVATLAEIYVAAALRVKTSLPRALHFLTRFFLSSARQACLAQSGSVPPAMQWLCHPVGHRFFVDGDWSVLSTPWESLYSLAGNPVDPLAQVTQLFREHLLERALNCVTQPNPSPGSADGDKEFSDALGYLQLLNSCSDAAGAPAYSFSISSSMATTTGVDPVAKWWASLTAVVIHWLRRDEEAAERLCPLVEHLPRVLQESERPLPRAALHSFKAARALLGCAKAESGPASLTICEKASGYLQDSLATTPASSSIDKAVQLFLCDLLLVVRTSLWRQQQPPAPAPAAQGTSSRPQASALELRGFQRDLSSLRRLAQSFRPAMRRLMDVLTSESAWALPQHLGKGFPSPSGHKVPGWHGRMD
For B1, the binding was “binds”.
